# Measurements taken from the supplement of paper PMC3334620.
# Whole data set: some 33,000 sequences, median “E-score (-0.5 to 0.5)” near -0.0034, cut for the highest 2% near 0.25. This is one part of the list.
# Target: T1, Yap3 (UniProt P38749)
# T1 sequence: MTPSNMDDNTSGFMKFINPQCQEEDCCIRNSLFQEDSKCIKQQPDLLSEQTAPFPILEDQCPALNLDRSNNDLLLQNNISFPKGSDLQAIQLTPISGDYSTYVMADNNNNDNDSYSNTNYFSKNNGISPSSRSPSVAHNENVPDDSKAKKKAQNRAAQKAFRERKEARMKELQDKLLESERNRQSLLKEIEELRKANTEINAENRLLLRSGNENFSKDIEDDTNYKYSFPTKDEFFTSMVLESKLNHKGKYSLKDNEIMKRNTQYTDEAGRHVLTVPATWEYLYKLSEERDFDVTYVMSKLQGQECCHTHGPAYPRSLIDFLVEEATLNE
# Assay: PBM E-score (8-mer binding enrichment) (E-score (-0.5 to 0.5)); higher = stronger / more preferred TF binding
# Settings: protein concentration: 100 nM; construct: GST-full length
# Outline: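 GST-tagged yeast TFs (full-length or DNA-binding domain) were made by PURExpress in vitro transcription/translation and applied at about 100-200 nM to universal all-10-mer Agilent arrays. The arrays were made double-stranded by primer extension, on fresh or once-stripped slides. Bound protein was detected with fluorescent anti-GST, and scans were normalised with masliner. Each ungapped eight-base word, pooled with its reverse complement, received an E-score (modified Wilcoxon-Mann-Whitney statistic) from the Universal PBM Analysis Suite.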
row,Sequence,PBM E-score
1,ATAGACAG,0.0681
2,CATTCCGC,0.0576
3,ACAGCTCA,-0.119
4,TACGTAGA,0.0529
5,ATAAAAAC,0.213
6,CACCAGGC,-0.16
7,GATAGACC,-0.00068
8,TATAAGGA,0.168
9,TAAGTAGA,0.109
10,CACCTAAG,-0.00421
11,ATTGAGCC,-0.0243
12,CAGTCTCC,-0.0846
13,CCTCCTAA,-0.198
14,CAGTTTGC,0.124
15,CATAAAGG,0.00277
16,GACTACGA,-0.0664
17,GAAGCCCA,-0.181
18,GATGTACC,0.0745
19,AACCGGGC,-0.261
20,ATGATGCC,-0.0842
21,ATTCACGC,0.0462
22,CCTTTGAG,-0.131
23,CTCATATC,-0.0466
24,CCGGCAGG,-0.194
25,TATGGTCA,0.0184

row,Sequence,PBM E-score
1,CCGGTGCA,-0.251
2,AGCTGTAA,0.0402
3,ATCTCAGA,-0.021
4,CACCGATA,0.00145
5,CCCTTCAG,-0.0588
6,AGTTATGG,0.0413
7,ATCCTGGG,-0.149
8,CCATTTAG,0.00911
9,CCGATTAG,0.0861
10,AACATAAC,0.269
11,CTCGGTTA,-0.0842
12,ACGGAAGG,-0.0813
13,CACCTGGA,-0.115
14,TCTTGTAA,0.118
15,CTTACTTC,0.176
16,CGAAAGTA,0.0222
17,CTGTCCAA,0.0393
18,GGTCTGAC,-0.0516
19,CCATTTCG,-0.0106
20,GACTCGGA,-0.181
21,GGGCGCCA,-0.0677
22,CCACCCTA,0.0602
23,CCTACGAG,-0.0509
24,CCTAGAGA,-0.067
25,GATGCTCC,-0.132

row,Sequence,PBM E-score
1,AAAAACCC,-0.0375
2,CTAGTGTA,0.088
3,GCAGCTGC,-0.301
4,TCGGCGCA,0.0397
5,CCCCGAGC,-0.187
6,CTCCGGGC,-0.188
7,TCAAGCCA,-0.0356
8,CTATCAAA,0.155
9,GCGTGCCC,-0.281
10,GAAAGGTA,0.148
11,AGATGCTG,-0.098
12,AAACTAGG,-0.014
13,CTCAAAAA,0.0101
14,AGCCCTCA,-0.27
15,GCCCGTAC,-0.155
16,CCACAAAC,0.0763
17,CGTTCCAA,0.0781
18,TAAGAAAA,0.156
19,GGTCCCCA,-0.272
20,GTTGAACA,-0.038
21,AACTTCGG,0.13
22,CGCAACGA,0.0228
23,ATTTCAGA,0.0687
24,GTTTCATA,0.0741
25,TTCGGCAA,0.0318

row,Sequence,PBM E-score
1,CAGATGCG,-0.101
2,ACCGGGTC,-0.17
3,CGGCGTAG,-0.213
4,ACATTTAC,0.0976
5,ACAATTGC,0.0787
6,CTACGATC,-0.0231
7,ACTCGACA,0.0738
8,CTTTATAA,0.206
9,ACTGGTAT,0.0087
10,CTCTGTCA,-0.0299
11,ATTCAGAC,0.187
12,CCTAGTGA,-0.201
13,CGTTTTTA,0.153
14,GGGCATAC,-0.18
15,CTAAAGGC,-0.135
16,GGTCTGCA,-0.0699
17,AAAGGGAC,-0.0721
18,ATTTCGGG,0.00062
19,ACGCTCAT,0.159
20,CGCTACGC,-0.273
21,ATGCACAC,0.044
22,AATTCGTG,0.0072
23,CGAACTTC,0.0985
24,CATGATAG,0.165
25,CCTTGCTC,-0.0483

# Quoted at random: 2 records from the list, in no set order.
row,Sequence,PBM E-score
9,ACTGGTAT,0.0087
17,AAAGGGAC,-0.0721

# Later entries

row,Sequence,PBM E-score
1,CAAAGCGA,0.0238
2,AACGAGAG,0.0783
3,TAGAGCTA,-0.0728
4,AATACGGA,0.154
5,GGCGCCTA,-0.145
6,CTTTGTTC,0.0752
7,AAGGGTGT,0.0156
8,AGATTAAT,0.194
9,CCCACGGA,-0.256
10,ATGGTACG,0.192
11,GGTCTCAC,-0.0968
12,CTCGGACC,-0.0993
13,GAATAATC,0.217
14,ACCCCAGA,-0.0923
15,AGCTGCCG,-0.0538
16,ACCCGCCA,-0.0128
17,AGACCCAG,-0.0787
18,GTCTACAA,-0.035
19,AACCGTAA,0.0667
20,GTCTGAAA,0.0573
21,CAGATTAA,0.111
22,CAGCCTGC,-0.218
23,CTAAGCGC,-0.012
24,CCGTTCCG,0.0238
25,CGATGTAC,0.118

# A different layout for part of the listing above.
row	Sequence	PBM E-score
7	AAGGGTGT	0.0156
8	AGATTAAT	0.194
9	CCCACGGA	-0.256

# 2 neighbouring records out of the list so far:
row,Sequence,PBM E-score
13,GAATAATC,0.217
14,ACCCCAGA,-0.0923

# More results.

row,Sequence,PBM E-score
1,AAGGACGG,-0.175
2,ACAAGCAA,0.131
3,GGATTTAA,0.16
4,ACCGGAAA,0.0324
5,CTGTGATC,0.046
6,TGGCGGAA,-0.231
7,TCCCCCAA,-0.235
8,GCCCATAC,-0.0143
9,AAATCTAT,0.114
10,CCGACCAG,-0.0682
11,TGCTGCAA,0.176
12,CTACTCGC,0.0558
13,ATAGGTGA,0.0245
14,GATTATAC,0.153
15,AAGCCAGG,-0.143
16,ATCCCCGC,-0.0433
17,CATGACTC,-0.0941
18,CTGGTGCA,-0.146
19,CAGAGCAA,-0.0103
20,CCGGAACC,-0.236
21,ATAAGACC,0.0584
22,CAGCCAGC,-0.157
23,CGCCCTAA,-0.135
24,ATAATCTA,0.229
25,GGCGTCCC,-0.221

row,Sequence,PBM E-score
1,CTGTCCCC,-0.126
2,GACACCAA,0.1
3,AACCTTGA,0.124
4,CGCCGGAA,-0.112
5,ACCGGCCT,-0.185
6,CAGAAGTC,-0.0217
7,TATAGCAA,0.0906
8,GACTGTCA,-0.14
9,CAAGGGAA,-0.0707
10,CTTTAATC,0.152
11,CATACGTC,0.0447
12,AGTGAACC,0.0895
13,CACGAAAG,0.0991
14,ACCGCGCC,-0.0196
15,GTCTTAAA,-0.035
16,ATTGCCGG,-0.0327
17,CAGCGCAC,-0.228
18,AGGCTCGG,-0.151
19,TATTGGAA,0.00926
20,ACTTTACA,0.052
21,CGCTCTAC,0.117
22,CGGATAAA,0.208
